The test system of this series is T1, CLas GMPS (guanosine 5′-monophosphate synthetase).
T1 construct: gene guaA
It counts as biochemical, Candidatus Liberibacter asiaticus.

Read-outs that look alike come from different tables or passages of the source.

On to `Nc1ncnc2c1ncn2[C@@H]1O[C@H](COP(=O)(O)OP(=O)(O)OP(=O)(O)O)[C@@H](O)[C@H]1O` [ATP], for which the Km (commonly the substrate concentration at which the rate is half of its maximum) (read-out: Km) came out at 258 ± 24.9 µM.

Turning to `NC(=O)CC[C@H](N)C(=O)O` [glutamine], the Km (read-out: Glutamine, Km μM) is 215 ± 26.8 µM.

The values above are taken from PMC8301025 (Biology, 2021).
